Consider two compounds from the supplement of paper PMC9177965.

The entries are a selection whose mix differs from that of the whole data set.

In the experiment the test system is HT29 RNF43 G659fs (RNF43 659mut, CRISPR-edited). The experiment can be described thus: cell viability activity relative to DMSO (negative = inhibition); higher = more viable cells (less growth inhibition). The following applies: 5 µM; 96 h. On the procedure:
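Broad Repurposing Library primary screen at a single dose of 5 uM. HT29 sg-Ctrl and HT29 RNF43 G659fs CRISPR-edited isogenic cells were seeded at 2500 cells/well in 384-well plates in duplicate and treated for 96 h. Viability was read by CellTiter-Glo and reported as % activity relative to DMSO, with MG132 as the positive control (negative = growth inhibition).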
For the compound `Cc1nc2c(-c3cnc(N)nc3)nc(N3CCOCC3)nc2n1C(C)C`, the cell viability activity was -74%.

For the compound `COc1cc(N2CCN(C(C)=O)CC2)ccc1Nc1ncc(Cl)c(Nc2ccc(N3CCN(C(C)=O)CC3)cc2OC)n1`, the cell viability activity is -24.3%.
